Data reported in patent US20230053131A1 (INTERVET, published 2023).
Changes are numbered by the printed parent chain. These are yes or no findings as the source states them, for the method shown. Some results given as binding are weak or reduced against the parent protein; the word gives no strength.

T1: canine IL-4 receptor alpha (as used in the ELISA of FIG. 3 and in the epitope mapping) (canine)
T1 sequence: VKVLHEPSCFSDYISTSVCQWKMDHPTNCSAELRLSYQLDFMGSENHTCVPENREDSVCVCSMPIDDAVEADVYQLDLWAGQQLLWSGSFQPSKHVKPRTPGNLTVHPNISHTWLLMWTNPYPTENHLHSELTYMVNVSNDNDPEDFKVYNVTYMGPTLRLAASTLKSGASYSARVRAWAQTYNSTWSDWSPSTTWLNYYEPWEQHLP

B1: c146ClL1-H1 (antibody, V domains shown)
VH: EVQLVQSGAEVKKPGASVKVSCKASGYTFARYWMHWVRQAPGAGLDWMGMIHPDSGNINYNERFKTRVTLTADTSTSTAYMELSSLRAGDIAVYYCARQLRNAMDYWGQGTLVTVSS
VL: QSVLTQPASVSGSLGQRVTISCRASESVDSYGNSFLNWYQQLPGKAPSLLIYRASNLASGVPERFSGSKSGSSATLTITGLQAEDEADYYCQQNYENPRTFGGGTHLTVLG
B2: c146E2VL3-cCLk-s/c146E2VH3-cIgG-Bm (antibody, V domains shown)
VH: B1 VH with V37M, R38K, M48I, R67K, V68A, A72V, T74K
VL: DIVLTQTPLSLSVSPGETASIYCRASESVDSYGNSFLNWYQQKPGQPPKLLIYRASNLASEIPDRFSGSGSRTEFTLKISRVEADDAGVYYCQQNYENPRTFGQGTKLEIKR
notes: Caninized murine anti-canine IL-4R alpha antibody, canine IgG-Bm heavy chain and canine kappa light chain; also called c146E2-H3L3
B3: c146ClL1-H2 (antibody, V domains shown)
VH: B1 VH with V37M, R38K, M48I, R67K, V68A
VL: B1 VL
B4: c146ClL1-H3 (antibody, V domains shown)
VH: B1 VH with V37M, R38K, M48I, R67K, V68A, A72V, T74K
VL: B1 VL

Target: T1, canine IL-4 receptor alpha (as used in the ELISA of FIG. 3 and in the epitope mapping) (canine)
Experiment: ELISA

binding | Binder
binds | B1
binds | B2
binds | B3
binds | B4

Target: T1, canine IL-4 receptor alpha (as used in the ELISA of FIG. 3 and in the epitope mapping) (canine)
Experiment: ELISA (FIG. 3)

binding | Binder
binds | B2
binds | B4
